No constants are given. Whether binding was seen depends on the method and setting. Binding seen in cells or lysates may run through a third protein. Some entries that bind do so weakly or less than the wild type. For some assays here: Tags and fused reporters may be left off the sequences shown.
Key:
Assay in all cases: co-IP
[1] = target: T1, DRG family regulatory protein 2 (DFRP2), endogenous (human (endogenous in HEK293T)) (UniProt Q9H446)
T1 sequence: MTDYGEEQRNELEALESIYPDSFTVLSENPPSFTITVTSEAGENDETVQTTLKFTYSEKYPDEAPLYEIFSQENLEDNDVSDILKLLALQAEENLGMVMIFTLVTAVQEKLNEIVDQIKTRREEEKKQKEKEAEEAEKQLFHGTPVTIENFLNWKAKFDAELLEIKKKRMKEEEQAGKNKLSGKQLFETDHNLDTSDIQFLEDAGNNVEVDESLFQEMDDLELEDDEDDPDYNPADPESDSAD

[2] = target: T2, HA-DRG1 LIYVD (L155E + I260R + Y262A + V264K + D280Y) (human) (UniProt Q9Y295)
T2 sequence: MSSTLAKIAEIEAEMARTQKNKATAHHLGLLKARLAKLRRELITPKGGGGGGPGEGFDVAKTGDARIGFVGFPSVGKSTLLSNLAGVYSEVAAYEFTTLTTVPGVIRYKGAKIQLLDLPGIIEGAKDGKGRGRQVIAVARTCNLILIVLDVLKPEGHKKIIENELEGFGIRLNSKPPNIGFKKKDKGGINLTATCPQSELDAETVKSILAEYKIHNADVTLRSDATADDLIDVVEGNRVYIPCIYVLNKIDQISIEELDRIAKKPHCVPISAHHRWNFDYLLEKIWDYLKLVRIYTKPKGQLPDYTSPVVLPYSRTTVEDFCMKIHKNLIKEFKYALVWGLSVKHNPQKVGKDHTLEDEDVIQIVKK

[3] = target: T3, DRG1-Flag LIYVD (L155E + I260R + Y262A + V264K + D280Y) (human) (UniProt Q9Y295)
T3 sequence: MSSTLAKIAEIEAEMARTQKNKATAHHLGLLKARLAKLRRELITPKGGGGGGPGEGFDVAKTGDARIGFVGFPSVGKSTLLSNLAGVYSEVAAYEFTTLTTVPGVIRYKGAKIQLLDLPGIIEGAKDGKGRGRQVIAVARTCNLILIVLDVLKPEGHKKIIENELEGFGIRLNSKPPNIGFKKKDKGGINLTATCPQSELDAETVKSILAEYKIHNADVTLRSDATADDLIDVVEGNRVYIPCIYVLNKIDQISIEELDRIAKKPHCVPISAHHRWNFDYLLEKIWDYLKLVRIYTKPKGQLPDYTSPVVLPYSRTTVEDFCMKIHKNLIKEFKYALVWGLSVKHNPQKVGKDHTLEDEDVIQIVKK

[4] = target: T4, DRG2-Flag wildtype (human) (UniProt P55039)
T4 sequence: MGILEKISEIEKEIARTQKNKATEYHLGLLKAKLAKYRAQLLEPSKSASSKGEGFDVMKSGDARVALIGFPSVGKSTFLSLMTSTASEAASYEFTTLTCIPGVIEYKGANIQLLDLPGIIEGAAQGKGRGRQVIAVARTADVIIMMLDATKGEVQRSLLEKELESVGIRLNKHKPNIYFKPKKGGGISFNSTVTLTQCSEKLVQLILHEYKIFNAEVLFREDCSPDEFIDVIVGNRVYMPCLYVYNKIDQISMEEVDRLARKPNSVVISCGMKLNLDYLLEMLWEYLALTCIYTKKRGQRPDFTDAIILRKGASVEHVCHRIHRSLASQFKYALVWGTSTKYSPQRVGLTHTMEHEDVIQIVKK

[5] = target: T5, HA-DRG2 wildtype (human) (UniProt P55039)
T5 sequence: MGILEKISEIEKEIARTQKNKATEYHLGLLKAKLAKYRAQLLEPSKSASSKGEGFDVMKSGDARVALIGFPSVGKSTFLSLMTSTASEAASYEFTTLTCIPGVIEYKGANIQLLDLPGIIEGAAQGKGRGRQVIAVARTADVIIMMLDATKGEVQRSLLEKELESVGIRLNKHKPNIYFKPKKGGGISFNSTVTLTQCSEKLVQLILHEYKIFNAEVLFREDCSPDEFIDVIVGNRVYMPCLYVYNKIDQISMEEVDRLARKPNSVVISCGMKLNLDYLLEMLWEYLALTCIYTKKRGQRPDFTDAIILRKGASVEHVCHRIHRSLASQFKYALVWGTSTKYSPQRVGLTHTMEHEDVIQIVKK

[6] = target: T6, HA-DRG2 ERAKY (E153L + R258I + A260Y + K262V + Y278D) (human) (UniProt P55039)
T6 sequence: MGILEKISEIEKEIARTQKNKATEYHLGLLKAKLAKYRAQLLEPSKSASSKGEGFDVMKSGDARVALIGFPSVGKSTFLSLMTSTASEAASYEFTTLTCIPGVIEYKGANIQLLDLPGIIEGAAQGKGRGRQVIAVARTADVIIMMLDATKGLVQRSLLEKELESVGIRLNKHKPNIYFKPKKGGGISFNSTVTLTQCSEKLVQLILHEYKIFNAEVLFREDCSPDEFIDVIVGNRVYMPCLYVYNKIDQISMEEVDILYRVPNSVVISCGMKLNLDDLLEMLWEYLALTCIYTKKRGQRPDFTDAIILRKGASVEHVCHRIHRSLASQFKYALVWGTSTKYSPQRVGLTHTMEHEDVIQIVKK

[7] = target: T7, HA-DRG1 wildtype (human) (UniProt Q9Y295)
T7 sequence: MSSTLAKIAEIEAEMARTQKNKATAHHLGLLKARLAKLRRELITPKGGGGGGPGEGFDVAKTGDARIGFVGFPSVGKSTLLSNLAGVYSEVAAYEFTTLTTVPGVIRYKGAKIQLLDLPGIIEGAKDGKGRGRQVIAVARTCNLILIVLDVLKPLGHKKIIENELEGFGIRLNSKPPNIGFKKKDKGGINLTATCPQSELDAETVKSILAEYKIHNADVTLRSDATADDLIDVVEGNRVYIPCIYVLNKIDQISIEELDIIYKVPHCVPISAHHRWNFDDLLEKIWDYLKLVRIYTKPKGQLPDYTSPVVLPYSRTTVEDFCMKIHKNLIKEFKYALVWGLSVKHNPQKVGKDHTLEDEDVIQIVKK

| Binder | binding [1] | binding [2] | binding [3] | binding [4] | binding [5] | binding [6] | binding [7] |
| --- | --- | --- | --- | --- | --- | --- | --- |
| Developmentally Regulated GTP-binding protein 2 (DRG2), endogenous (protein, UniProt P55039 1-364) MGILEKISEIEKEIARTQKNKATEYHLGLLKAKLAKYRAQLLEPSKSASSKGEGFDVMKSGDARVALIGFPSVGKSTFLSLMTSTASEAASYEFTTLTCIPGVIEYKGANIQLLDLPGIIEGAAQGKGRGRQVIAVARTADVIIMMLDATKGEVQRSLLEKELESVGIRLNKHKPNIYFKPKKGGGISFNSTVTLTQCSEKLVQLILHEYKIFNAEVLFREDCSPDEFIDVIVGNRVYMPCLYVYNKIDQISMEEVDRLARKPNSVVISCGMKLNLDYLLEMLWEYLALTCIYTKKRGQRPDFTDAIILRKGASVEHVCHRIHRSLASQFKYALVWGTSTKYSPQRVGLTHTMEHEDVIQIVKK | binds |  |  |  |  |  |  |
| DFRP2-V5 (protein, UniProt Q9H446 1-243) MTDYGEEQRNELEALESIYPDSFTVLSENPPSFTITVTSEAGENDETVQTTLKFTYSEKYPDEAPLYEIFSQENLEDNDVSDILKLLALQAEENLGMVMIFTLVTAVQEKLNEIVDQIKTRREEEKKQKEKEAEEAEKQLFHGTPVTIENFLNWKAKFDAELLEIKKKRMKEEEQAGKNKLSGKQLFETDHNLDTSDIQFLEDAGNNVEVDESLFQEMDDLELEDDEDDPDYNPADPESDSAD |  | binds | binds | binds | binds |  |  |
| V5-DFRP1 1-295 (domain or fragment, UniProt Q8WU90 1-295) MPPKKQAQAGGSKKAEQKKKEKIIEDKTFGLKNKKGAKQQKFIKAVTHQVKFGQQNPRQVAQSEAEKKLKKDDKKKELQELNELFKPVVAAQKISKGADPKSVVCAFFKQGQCTKGDKCKFSHDLTLERKCEKRSVYIDARDEELEKDTMDNWDEKKLEEVVNKKHGEAEKKKPKTQIVCKHFLEAIENNKYGWFWVCPGGGDICMYRHALPPGFVLKKDKKKEEKEDEISLEDLIERERSALGPNVTKITLESFLAWKKRKRQEKIDKLEQDMERRKADFKAGKALVISGREVF |  |  |  |  | no binding | no binding | binds |

From doi:10.1101/2023.05.31.543024
